The record followed here is the supplement of paper PMC12067093, “Discovery and optimisation of a covalent ligand for TRIM25 and its application to targeted protein ubiquitination” (Chemical Science, 2025).

By UniProt entry, the sequences of proteins in these tests, tags left out. Where a name states a change or a piece, a line headed by the entry shows the natural chain unless it says otherwise.
UniProt Q5M775: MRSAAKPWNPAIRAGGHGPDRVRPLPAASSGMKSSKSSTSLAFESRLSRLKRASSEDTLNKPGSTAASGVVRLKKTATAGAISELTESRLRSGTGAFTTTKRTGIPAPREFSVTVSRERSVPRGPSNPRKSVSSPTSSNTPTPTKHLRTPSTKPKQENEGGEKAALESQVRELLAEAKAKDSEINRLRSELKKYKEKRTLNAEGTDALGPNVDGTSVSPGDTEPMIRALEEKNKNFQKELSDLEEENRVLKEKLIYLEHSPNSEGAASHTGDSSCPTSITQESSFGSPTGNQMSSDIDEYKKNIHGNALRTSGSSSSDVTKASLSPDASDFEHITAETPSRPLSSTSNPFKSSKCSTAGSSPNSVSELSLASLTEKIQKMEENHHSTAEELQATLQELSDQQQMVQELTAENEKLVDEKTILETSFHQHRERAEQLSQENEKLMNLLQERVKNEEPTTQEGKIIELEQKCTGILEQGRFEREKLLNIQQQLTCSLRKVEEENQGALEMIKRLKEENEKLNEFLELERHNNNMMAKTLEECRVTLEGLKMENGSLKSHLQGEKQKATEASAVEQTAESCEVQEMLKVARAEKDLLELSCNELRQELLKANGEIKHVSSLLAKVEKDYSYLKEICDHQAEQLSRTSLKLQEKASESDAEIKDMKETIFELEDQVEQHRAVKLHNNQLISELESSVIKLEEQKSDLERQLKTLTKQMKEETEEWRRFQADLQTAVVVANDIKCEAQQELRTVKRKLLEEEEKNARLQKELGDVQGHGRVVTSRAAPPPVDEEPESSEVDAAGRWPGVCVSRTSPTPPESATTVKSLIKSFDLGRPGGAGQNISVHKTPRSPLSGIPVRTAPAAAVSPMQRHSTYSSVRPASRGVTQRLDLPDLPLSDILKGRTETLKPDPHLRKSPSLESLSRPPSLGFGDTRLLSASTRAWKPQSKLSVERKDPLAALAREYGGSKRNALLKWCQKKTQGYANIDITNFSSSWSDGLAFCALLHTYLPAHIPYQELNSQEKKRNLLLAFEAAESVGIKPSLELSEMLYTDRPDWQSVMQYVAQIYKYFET
UniProt Q9UNH6: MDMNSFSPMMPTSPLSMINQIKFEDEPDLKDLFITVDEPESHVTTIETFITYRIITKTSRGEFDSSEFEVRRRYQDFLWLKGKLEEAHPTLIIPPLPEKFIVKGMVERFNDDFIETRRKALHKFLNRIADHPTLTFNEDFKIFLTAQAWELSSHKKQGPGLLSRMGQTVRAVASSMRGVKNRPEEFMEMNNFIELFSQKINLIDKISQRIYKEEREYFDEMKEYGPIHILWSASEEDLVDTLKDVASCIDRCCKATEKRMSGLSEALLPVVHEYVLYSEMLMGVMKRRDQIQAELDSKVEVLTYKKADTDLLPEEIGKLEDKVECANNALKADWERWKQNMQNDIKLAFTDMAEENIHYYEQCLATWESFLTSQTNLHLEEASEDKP
UniProt P30626: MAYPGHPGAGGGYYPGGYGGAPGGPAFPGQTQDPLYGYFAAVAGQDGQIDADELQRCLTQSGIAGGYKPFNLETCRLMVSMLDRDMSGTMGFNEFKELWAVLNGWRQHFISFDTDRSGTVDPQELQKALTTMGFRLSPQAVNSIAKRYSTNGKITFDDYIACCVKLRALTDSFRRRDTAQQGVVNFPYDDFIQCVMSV
UniProt Q9NUQ6: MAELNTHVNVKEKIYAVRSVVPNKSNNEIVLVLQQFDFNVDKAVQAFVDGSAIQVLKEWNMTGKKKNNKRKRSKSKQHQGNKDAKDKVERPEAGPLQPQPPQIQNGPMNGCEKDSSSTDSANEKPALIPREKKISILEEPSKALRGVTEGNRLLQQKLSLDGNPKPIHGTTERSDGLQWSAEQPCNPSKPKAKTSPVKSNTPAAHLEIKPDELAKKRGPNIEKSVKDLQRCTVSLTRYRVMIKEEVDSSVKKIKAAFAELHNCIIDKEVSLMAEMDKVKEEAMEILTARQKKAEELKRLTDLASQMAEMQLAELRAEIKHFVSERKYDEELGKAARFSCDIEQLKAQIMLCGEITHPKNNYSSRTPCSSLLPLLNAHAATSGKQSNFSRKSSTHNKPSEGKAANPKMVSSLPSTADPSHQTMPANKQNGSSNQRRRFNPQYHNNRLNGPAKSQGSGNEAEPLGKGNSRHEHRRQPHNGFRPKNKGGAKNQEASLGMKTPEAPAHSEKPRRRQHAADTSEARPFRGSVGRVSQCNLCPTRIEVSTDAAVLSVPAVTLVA
UniProt P10124: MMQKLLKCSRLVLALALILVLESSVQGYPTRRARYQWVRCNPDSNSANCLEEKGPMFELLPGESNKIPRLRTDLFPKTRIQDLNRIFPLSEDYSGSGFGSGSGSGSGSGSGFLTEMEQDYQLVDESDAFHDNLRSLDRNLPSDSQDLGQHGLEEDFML
UniProt P19623: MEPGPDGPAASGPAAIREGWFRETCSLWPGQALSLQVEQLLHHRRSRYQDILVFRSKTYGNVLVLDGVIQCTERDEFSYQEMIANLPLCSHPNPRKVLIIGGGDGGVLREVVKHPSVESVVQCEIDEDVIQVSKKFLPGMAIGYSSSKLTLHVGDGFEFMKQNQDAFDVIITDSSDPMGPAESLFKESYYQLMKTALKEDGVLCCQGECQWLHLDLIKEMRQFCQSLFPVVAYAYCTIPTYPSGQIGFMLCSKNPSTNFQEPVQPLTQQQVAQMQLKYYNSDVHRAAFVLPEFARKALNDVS
UniProt P49458: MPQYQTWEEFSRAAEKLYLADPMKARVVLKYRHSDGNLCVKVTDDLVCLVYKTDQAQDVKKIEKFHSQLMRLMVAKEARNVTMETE
UniProt P09132: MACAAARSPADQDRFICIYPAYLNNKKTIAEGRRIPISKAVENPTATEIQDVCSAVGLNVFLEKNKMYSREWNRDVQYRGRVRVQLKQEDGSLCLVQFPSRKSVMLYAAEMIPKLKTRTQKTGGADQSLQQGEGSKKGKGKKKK
UniProt Q96T58, whole entry, looked up: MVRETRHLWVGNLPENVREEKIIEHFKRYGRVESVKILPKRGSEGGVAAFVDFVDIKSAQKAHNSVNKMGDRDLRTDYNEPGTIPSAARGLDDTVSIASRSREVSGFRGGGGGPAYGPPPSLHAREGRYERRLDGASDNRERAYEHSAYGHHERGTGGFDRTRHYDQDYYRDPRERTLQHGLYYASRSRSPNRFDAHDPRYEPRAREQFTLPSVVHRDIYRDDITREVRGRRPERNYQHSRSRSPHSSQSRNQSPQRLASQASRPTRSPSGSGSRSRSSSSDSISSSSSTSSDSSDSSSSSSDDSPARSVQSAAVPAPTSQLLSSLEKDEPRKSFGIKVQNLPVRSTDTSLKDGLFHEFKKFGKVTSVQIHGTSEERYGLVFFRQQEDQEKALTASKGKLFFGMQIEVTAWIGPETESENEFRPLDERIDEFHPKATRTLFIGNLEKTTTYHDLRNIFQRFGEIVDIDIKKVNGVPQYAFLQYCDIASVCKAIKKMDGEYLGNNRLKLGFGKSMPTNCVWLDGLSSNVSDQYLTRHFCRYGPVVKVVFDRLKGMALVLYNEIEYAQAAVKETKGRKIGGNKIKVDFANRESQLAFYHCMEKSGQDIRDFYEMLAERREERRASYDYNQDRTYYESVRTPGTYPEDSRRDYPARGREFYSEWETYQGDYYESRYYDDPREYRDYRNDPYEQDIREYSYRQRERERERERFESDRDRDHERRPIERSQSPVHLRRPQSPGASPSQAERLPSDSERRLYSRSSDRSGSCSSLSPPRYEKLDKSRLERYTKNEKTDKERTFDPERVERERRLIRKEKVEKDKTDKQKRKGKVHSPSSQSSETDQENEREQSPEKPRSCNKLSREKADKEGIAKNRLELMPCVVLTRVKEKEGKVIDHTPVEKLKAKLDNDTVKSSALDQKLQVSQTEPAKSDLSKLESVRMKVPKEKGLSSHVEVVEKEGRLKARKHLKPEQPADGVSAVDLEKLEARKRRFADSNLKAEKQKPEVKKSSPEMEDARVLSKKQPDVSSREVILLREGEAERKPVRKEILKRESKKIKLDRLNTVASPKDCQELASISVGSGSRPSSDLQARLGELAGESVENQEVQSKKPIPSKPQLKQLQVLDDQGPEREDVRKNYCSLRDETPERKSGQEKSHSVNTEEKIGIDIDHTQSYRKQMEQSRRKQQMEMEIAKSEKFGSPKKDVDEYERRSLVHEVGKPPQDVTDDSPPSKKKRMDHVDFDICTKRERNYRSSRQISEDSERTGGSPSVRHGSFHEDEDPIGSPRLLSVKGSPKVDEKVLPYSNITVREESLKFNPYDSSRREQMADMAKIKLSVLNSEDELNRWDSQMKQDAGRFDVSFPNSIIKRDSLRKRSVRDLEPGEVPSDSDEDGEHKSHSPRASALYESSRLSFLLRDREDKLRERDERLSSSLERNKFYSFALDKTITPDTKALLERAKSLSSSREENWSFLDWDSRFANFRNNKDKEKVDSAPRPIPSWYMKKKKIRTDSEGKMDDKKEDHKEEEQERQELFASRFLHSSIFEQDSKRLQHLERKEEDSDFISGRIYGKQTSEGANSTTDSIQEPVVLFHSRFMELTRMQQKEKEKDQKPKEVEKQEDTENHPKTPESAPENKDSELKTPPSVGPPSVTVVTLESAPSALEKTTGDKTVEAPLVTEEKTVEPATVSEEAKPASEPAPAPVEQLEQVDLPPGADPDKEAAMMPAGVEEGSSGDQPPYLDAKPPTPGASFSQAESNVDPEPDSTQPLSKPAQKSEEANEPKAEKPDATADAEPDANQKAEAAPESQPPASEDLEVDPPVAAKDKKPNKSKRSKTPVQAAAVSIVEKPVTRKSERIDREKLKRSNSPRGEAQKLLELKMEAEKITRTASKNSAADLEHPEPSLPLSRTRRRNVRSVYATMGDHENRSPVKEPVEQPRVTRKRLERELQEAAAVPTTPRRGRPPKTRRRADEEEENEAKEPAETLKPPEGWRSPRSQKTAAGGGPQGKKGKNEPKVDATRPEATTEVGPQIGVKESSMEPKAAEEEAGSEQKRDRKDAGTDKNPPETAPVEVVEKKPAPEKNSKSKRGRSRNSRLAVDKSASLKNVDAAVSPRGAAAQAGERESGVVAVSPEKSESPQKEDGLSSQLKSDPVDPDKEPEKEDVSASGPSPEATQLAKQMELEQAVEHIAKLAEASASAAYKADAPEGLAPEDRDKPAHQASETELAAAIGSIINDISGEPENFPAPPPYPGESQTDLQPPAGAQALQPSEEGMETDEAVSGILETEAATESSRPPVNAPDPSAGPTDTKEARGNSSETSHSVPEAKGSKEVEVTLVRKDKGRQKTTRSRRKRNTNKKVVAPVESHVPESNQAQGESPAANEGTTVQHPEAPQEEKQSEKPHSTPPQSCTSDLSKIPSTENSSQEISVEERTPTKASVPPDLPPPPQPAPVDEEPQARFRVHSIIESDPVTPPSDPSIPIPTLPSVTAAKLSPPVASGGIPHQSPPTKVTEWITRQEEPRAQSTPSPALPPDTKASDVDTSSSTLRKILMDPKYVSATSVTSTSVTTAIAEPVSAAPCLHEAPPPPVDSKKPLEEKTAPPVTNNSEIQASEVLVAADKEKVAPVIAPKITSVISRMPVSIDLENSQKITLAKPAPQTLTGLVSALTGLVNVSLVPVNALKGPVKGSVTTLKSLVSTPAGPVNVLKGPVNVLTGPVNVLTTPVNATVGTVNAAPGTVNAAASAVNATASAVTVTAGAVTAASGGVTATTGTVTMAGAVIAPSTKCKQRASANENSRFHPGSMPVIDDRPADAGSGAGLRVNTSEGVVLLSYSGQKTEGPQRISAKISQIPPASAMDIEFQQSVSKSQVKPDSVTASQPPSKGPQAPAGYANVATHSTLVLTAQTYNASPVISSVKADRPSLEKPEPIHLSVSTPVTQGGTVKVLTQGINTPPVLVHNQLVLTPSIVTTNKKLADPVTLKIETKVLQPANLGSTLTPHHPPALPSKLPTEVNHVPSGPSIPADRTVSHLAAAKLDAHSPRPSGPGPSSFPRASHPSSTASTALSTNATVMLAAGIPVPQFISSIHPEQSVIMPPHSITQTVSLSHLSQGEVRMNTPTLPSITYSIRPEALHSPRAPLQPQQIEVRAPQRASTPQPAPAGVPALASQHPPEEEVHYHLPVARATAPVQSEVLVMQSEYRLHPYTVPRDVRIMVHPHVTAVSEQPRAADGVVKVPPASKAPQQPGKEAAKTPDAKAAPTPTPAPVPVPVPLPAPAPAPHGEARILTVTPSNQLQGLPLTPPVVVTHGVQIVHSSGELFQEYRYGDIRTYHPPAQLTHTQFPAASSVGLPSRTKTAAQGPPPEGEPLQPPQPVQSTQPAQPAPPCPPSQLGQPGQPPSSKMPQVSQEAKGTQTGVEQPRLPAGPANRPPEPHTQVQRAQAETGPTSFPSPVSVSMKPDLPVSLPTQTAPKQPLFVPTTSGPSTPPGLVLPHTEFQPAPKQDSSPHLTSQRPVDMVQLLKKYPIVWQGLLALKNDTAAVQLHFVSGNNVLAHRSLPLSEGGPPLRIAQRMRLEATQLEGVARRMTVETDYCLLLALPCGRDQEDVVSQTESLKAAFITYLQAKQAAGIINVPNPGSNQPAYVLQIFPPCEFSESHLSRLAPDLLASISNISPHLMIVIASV

Some of the results follow.
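Further: competitive profiling in live THP-1 cells: cysteine peptides tagged with an iodoacetamide desthiobiotin (IA-DTB) probe, intensity after compound treatment relative to DMSO-treated cells.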

Compound in the test: Cc1cc(ccc1-c1ccccc1)C(=O)N1CCCN(CC1)C(=O)CCl [compound 10]
Description: probe-labelled cysteine peptide fold change vs DMSO (competition) (log2 fold change); higher = less target engagement (more negative = stronger competition). As to conditions: 10 µM; THP-1; incubation time: 4 h.
Regarding “SPATS2_Q86XZ4_280_QAFAELESCLMDR (UniProt Q86XZ4)”, the “probe-labelled cysteine peptide fold change” value was -0.0886.

As to “SNU13_P55769_102_ACGVSRPVIACSVTIK (UniProt P55769)”, the “probe-labelled cysteine peptide fold change” value was 0.263.

Consider “SNX14_Q9Y5W7_593_ERIPVFCIDVER (UniProt Q9Y5W7)”, for which the “probe-labelled cysteine peptide fold change” value is 0.129.

Take “SPECC1_Q5M775_598_DLLELSCNELRQELLK (UniProt Q5M775)”: the “probe-labelled cysteine peptide fold change” value is -0.205.

Consider “SNX7_Q9UNH6_325_VECANNALK (UniProt Q9UNH6)”, for which the “probe-labelled cysteine peptide fold change” value was -0.12.

In the case of “SNX5_Q9Y5X3_346+347_LAEAHQQECCQK (UniProt Q9Y5X3)”, the “probe-labelled cysteine peptide fold change” value was -0.2.

As for “SP100_P23497_266+270_EMPCPLPCDEESPEAELHNHGIQINSCSVR (UniProt P23497)”, the “probe-labelled cysteine peptide fold change” value is -0.396.

“SPTLC1_O15269_419_LLQEIVDQCMNR (UniProt O15269)”: the “probe-labelled cysteine peptide fold change” value is 0.137.

“SRI_P30626_57+75_CLTQSGIAGGYKPFNLETCR (UniProt P30626)”: the “probe-labelled cysteine peptide fold change” value worked out at 0.277.

Regarding “SPDL1_Q96EA4_490_EETQSCPNSLEDNNLQLEK (UniProt Q96EA4)”, the “probe-labelled cysteine peptide fold change” value was found to be 0.102.

As to “SNRPF_P62306_66_CNNVLYIR (UniProt P62306)”, the “probe-labelled cysteine peptide fold change” value was -0.00262.

As for “SPR_P35270_159_TVVNISSLCALQPFK (UniProt P35270)”, the “probe-labelled cysteine peptide fold change” value is -0.0109.

For “SRPRB_Q9Y5M8_179_NTPSFLIACNK (UniProt Q9Y5M8)”, the “probe-labelled cysteine peptide fold change” value is 0.136.

With “SPAG9_O60271_689_LWCAVGVNLSGGK (UniProt O60271)”, the “probe-labelled cysteine peptide fold change” value was -0.0189.

Take “SPATS2L_Q9NUQ6_367_TPCSSLLPLLNAHAATSGK (UniProt Q9NUQ6)”: the “probe-labelled cysteine peptide fold change” value was -0.195.

“SREBF1_P36956_932_ALLGCAK (UniProt P36956)”: the “probe-labelled cysteine peptide fold change” value is -0.103.

Regarding “SRGN_P10124_40+49_CNPDSNSANCLEEK (UniProt P10124)”, the “probe-labelled cysteine peptide fold change” value is -0.774.

With “SORL1_Q92673_752_LEGELVPCPLAEENEFILYAVR (UniProt Q92673)”, the “probe-labelled cysteine peptide fold change” value turned out to be 0.124.

“SRM_P19623_89_DEFSYQEMIANLPLCSHPNPR (UniProt P19623)”: the “probe-labelled cysteine peptide fold change” value stood at 0.0756.

In the case of SNX9_Q9Y5X1_399_CEAVGK (UniProt Q9Y5X1), the “probe-labelled cysteine peptide fold change” value was -0.165.

As for “SRP9_P49458_48_VTDDLVCLVYKTDQAQDVK (UniProt P49458)”, the “probe-labelled cysteine peptide fold change” value came out at 0.189.

“SPINT1_O43278_424_FTYGGCYGNK (UniProt O43278)”: the “probe-labelled cysteine peptide fold change” value was -0.0932.

For the target “SPTAN1_Q13813_956_EQAQSCR (UniProt Q13813)”, the “probe-labelled cysteine peptide fold change” value was -0.0464.

For the target “SRP19_P09132_17_FICIYPAYLNNK (UniProt P09132)”, the “probe-labelled cysteine peptide fold change” value was determined as 0.124.

Turning to “SP100_P23497_309_VECQAQAR (UniProt P23497)”, the “probe-labelled cysteine peptide fold change” value is -0.17.

Regarding “SRGAP2_O75044_588_DIFHDLMACVTMDNLQER (UniProt O75044)”, the “probe-labelled cysteine peptide fold change” value is 0.149.

In the case of “SPECC1_Q5M775_740_CEAQQELR (UniProt Q5M775)”, the “probe-labelled cysteine peptide fold change” value was 0.0327.

Take “SRP19_P09132_17_FICIYPAYLNNKK (UniProt P09132)”: the “probe-labelled cysteine peptide fold change” value came out at 0.198.

For the target “SP1_P08047_691_FACPECPK (UniProt P08047)”, the “probe-labelled cysteine peptide fold change” value came to 0.118.

As for “SPOUT1_Q5T280_139_KGQACVQLAR (UniProt Q5T280)”, the “probe-labelled cysteine peptide fold change” value came out at 0.0141.

In the case of “SP3_Q02447_683_KFVCPECSK (UniProt Q02447)”, the “probe-labelled cysteine peptide fold change” value was determined as 0.188.

For “SPEN_Q96T58_877_NRLELMPCVVLTR (UniProt Q96T58)”, the “probe-labelled cysteine peptide fold change” value worked out at 0.0437.

On to “SNW1_Q13573_250_IPPCISNWK (UniProt Q13573)”, for which the “probe-labelled cysteine peptide fold change” value was -0.157.

As to “SP110_Q9HB58_468_LPVTCGEAK (UniProt Q9HB58)”, the “probe-labelled cysteine peptide fold change” value is 0.0849.

For “SPPL2A_Q8TCT8_95_AVVVPWGSCHFLEK (UniProt Q8TCT8)”, the “probe-labelled cysteine peptide fold change” value is -0.069.

Take “SPATS2L_Q9NUQ6_263_AAFAELHNCIIDK (UniProt Q9NUQ6)”: the “probe-labelled cysteine peptide fold change” value came to 0.172.

Consider “SNX32_Q86XE0_237_CLADDYIPISAALSSLGTQEVNQLR (UniProt Q86XE0)”, for which the “probe-labelled cysteine peptide fold change” value is -0.211.

Consider “SPATA5L1_Q9BVQ7_685_TMPIGPDVSLENLAAETCFFSGADLR (UniProt Q9BVQ7)”, for which the “probe-labelled cysteine peptide fold change” value turned out to be 0.113.

For the target “SORBS3_O60504_482_GEHICLIR (UniProt O60504)”, the “probe-labelled cysteine peptide fold change” value stood at 0.162.
